Values from PubChem BioAssay AID1259308 (NCATS, 2017).
Here is one part, drawn at random, of about 59,000 reagents tested. In the full data, about 1,510 (2.6%) are marked active. 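Calls use total luciferase alone and ignore viability, so some active siRNAs may act by altering cell number.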 Reagents against one gene are numbered here.

- Aim: 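Candidate targets for better recombinant protein yield in mammalian cells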 (primary screen)
- Cells: human HEK293 embryonic kidney cells stably expressing firefly luciferase (HEK-CMV-Luc2-Hygro)
- Reagent: single siRNA against human genes, 0.8 pmol siRNA per well
- Time to read-out: 72 h
- Measurement: 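Reporter luminescence and viable-cell signal on separate replicate plates, given as percent of non-targeting control and median/MAD z-scores, plus per-cell luciferase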
- Reading the numbers: total luciferase, z-score and total luciferase, % of control: higher = more reporter protein produced; luciferase per cell, z-score: higher = more reporter output per viable cell; viable cells, % of control: higher = more viable cells
- Call rule: 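Active when the median/MAD z-score for overall luciferase is greater than 3; a gene was taken forward for validation with new siRNAs if at least two of its three siRNAs passed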
- Calls: active = raised luciferase; inactive = no rise

no.	gene knocked down	siRNA no.	total luciferase, z-score	total luciferase, % of control	luciferase per cell, z-score	viable cells, % of control	activity call
1	SEMA4B	1	1.13	104	0.0898	114	inactive
2	SEMA4B	2	0.76	97	0.498	95.1	inactive
3	SEMA4B	3	-0.979	62.4	-0.372	76.9	inactive
4	PLAT	1	0.384	89.5	1.08	75.3	inactive
5	PLAT	2	0.549	92.8	-0.29	112	inactive
6	PLAT	3	0.543	92.7	0.633	87.7	inactive
7	ACRV1	1	1.56	113	1.45	86.1	inactive
8	ACRV1	2	-1.12	59.6	-0.863	83.6	inactive
9	ACRV1	3	0.086	83.6	0.845	74.8	inactive
10	PPRC1	1	1.75	117	3.77	48.3	inactive
11	PPRC1	2	-0.571	70.5	-0.66	93.8	inactive
12	PPRC1	3	0.188	85.6	0.17	91.5	inactive
13	SSU72	1	2.37	129	1.9	87.4	inactive
14	SSU72	2	-0.313	75.7	-0.0908	86.6	inactive
15	SSU72	3	1.21	106	1.1	88.6	inactive
16	SKP1P2	1	-1.04	61.2	-0.603	80.2	inactive
17	SKP1P2	2	2.22	126	1.88	85.8	inactive
18	SKP1P2	3	-3.03	21.7	-1.76	38.6	inactive
19	TAL2	1	0.627	94.4	0.889	83.4	inactive
20	TAL2	2	1.57	113	1.22	91.5	inactive
21	TAL2	3	0.321	88.3	0.444	87.8	inactive
22	MED23	1	-1.69	48.2	0.991	41.5	inactive
23	MED23	2	-1.18	58.5	0.944	51	inactive
24	MED23	3	-1.9	44.2	-0.123	51	inactive

Laid out differently: results already given.
{"gene knocked down":"SEMA4B","siRNA no.":1,"total luciferase, z-score":1.13,"total luciferase, % of control":104,"luciferase per cell, z-score":0.0898,"viable cells, % of control":114,"activity call":"inactive"}
{"gene knocked down":"SEMA4B","siRNA no.":2,"total luciferase, z-score":0.76,"total luciferase, % of control":97,"luciferase per cell, z-score":0.498,"viable cells, % of control":95.1,"activity call":"inactive"}
{"gene knocked down":"SEMA4B","siRNA no.":3,"total luciferase, z-score":-0.979,"total luciferase, % of control":62.4,"luciferase per cell, z-score":-0.372,"viable cells, % of control":76.9,"activity call":"inactive"}
{"gene knocked down":"PLAT","siRNA no.":1,"total luciferase, z-score":0.384,"total luciferase, % of control":89.5,"luciferase per cell, z-score":1.08,"viable cells, % of control":75.3,"activity call":"inactive"}
{"gene knocked down":"PLAT","siRNA no.":2,"total luciferase, z-score":0.549,"total luciferase, % of control":92.8,"luciferase per cell, z-score":-0.29,"viable cells, % of control":112,"activity call":"inactive"}
{"gene knocked down":"PLAT","siRNA no.":3,"total luciferase, z-score":0.543,"total luciferase, % of control":92.7,"luciferase per cell, z-score":0.633,"viable cells, % of control":87.7,"activity call":"inactive"}

Additional results follow.
no.	gene knocked down	siRNA no.	total luciferase, z-score	total luciferase, % of control	luciferase per cell, z-score	viable cells, % of control	activity call
25	ARHGAP5	1	-0.18	78.3	-0.895	111	inactive
26	ARHGAP5	2	0.0241	82.4	-0.799	114	inactive
27	ARHGAP5	3	0.357	89	0.373	90.1	inactive
28	ZNF549	1	0.731	96.4	0.807	87.1	inactive
29	ZNF549	2	-0.15	78.9	0.13	85.2	inactive
30	ZNF549	3	4.87	179	3.18	86.4	active
31	ADAMDEC1	1	0.0513	82.9	-0.0475	93.8	inactive
32	ADAMDEC1	2	-0.903	63.9	-0.682	85.5	inactive
33	ADAMDEC1	3	-0.558	70.8	-0.122	81.7	inactive
34	SVBP	1	2.07	123	1.65	89.1	inactive
35	SVBP	2	-0.379	74.3	0.601	70.9	inactive
36	SVBP	3	4.83	178	3.5	79.2	active
37	RINL	1	1.92	120	1.3	95.2	inactive
38	RINL	2	-0.107	79.8	0.533	77.5	inactive
39	RINL	3	-1.6	50	0.0237	55.6	inactive
